PubChem BioAssay AID652243, Drosophila RNAi Screening Center, 2013

Purpose: 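Fly genes required for human androgen receptor driven transcription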 (primary screen)
Cell system: Drosophila S2R+ cells
Reagent: long dsRNA against Drosophila genes
Time to read-out: 72 h (48 h, then 24 h hormone)
Challenge: synthetic androgen R1881 at 10 nM for 24 h
Read-out: 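Firefly light from an androgen-responsive reporter and Renilla control light per well, raw and unnormalised, for each of two replicates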
Reading the numbers: firefly reporter light: higher = more light from androgen-responsive reporter; Renilla control light: higher = more constitutive control signal (cell number, transfection)
Hit rule: 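Across duplicate plates, a knock-down whose log firefly/Renilla ratio shifted a set fold down or up from the GFP/LacZ control mean was a hit; the downward cut appears as both 1.5 and 3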
Calls: active = hit: reporter lowered or raised; inactive = no hit
The screen tested about 24,000 reagents; shown is a random part of those that have a named target and a result. Of all reagents, 246 (1%) are marked active. 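Plates not normalised; calls are printed but the firefly/Renilla ratio behind them is not deposited; fold cut for lowering reported inconsistently.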 Raw values vary from plate to plate and are shown uncorrected. A plus sign joins genes that one reagent is predicted to hit. The record does not give: the amount of reagent.

| Gene | PubChem SID | firefly reporter light, replicate 1 | firefly reporter light, replicate 2 | Renilla control light, replicate 1 | Renilla control light, replicate 2 | Outcome |
| --- | --- | --- | --- | --- | --- | --- |
| CG8204 | SID104186898 | 1.45e5 | 1.23e5 | 2.02e6 | 2.02e6 | inactive |
| Or67c (Odorant receptor 67c) | SID104191034 | 2.10e5 | 1.56e5 | 2.43e6 | 1.68e6 | inactive |
| CG12655 | SID104200470 | 86561 | 91527 | 97430 | 1.12e5 | inactive |
| CG13036 (retired record) | SID104189708 | 2.86e5 | 3.13e5 | 3.10e6 | 2.44e6 | inactive |
| Ing5 (Inhibitor of growth family member 5) | SID104182980 | 1.43e6 | 1.53e6 | 2.38e6 | 2.36e6 | inactive |
| Ing5 (Inhibitor of growth family member 5) | SID104203762 | 7.29e5 | 7.00e5 | 7.57e5 | 8.24e5 | inactive |
| CG10283 | SID104181826 | 1.03e6 | 1.25e6 | 2.28e6 | 2.06e6 | inactive |
| CG10283 | SID104203848 | 7.87e5 | 8.78e5 | 8.81e5 | 1.05e6 | inactive |
| Drsl4 (Drosomycin-like 4) | SID104187826 | 2.14e5 | 2.81e5 | 2.29e5 | 2.86e5 | inactive |
| Drsl4 (Drosomycin-like 4) | SID104205703 | 5.06e5 | 4.87e5 | 6.68e5 | 6.33e5 | inactive |
| RhoGDI | SID104190711 | 81287 | 1.05e5 | 7.77e5 | 6.61e5 | inactive |
| CG1371 | SID104186201 | 7.82e5 | 6.20e5 | 1.15e6 | 1.27e6 | inactive |
| CG7945 | SID104190726 | 1.08e6 | 9.12e5 | 1.57e6 | 1.80e6 | inactive |
| CG3071 | SID104198318 | 82848 | 98332 | 1.33e6 | 7.66e5 | inactive |
| CG3071 | SID104204833 | 4.09e5 | 3.95e5 | 3.68e5 | 3.39e5 | inactive |
| unc-13 | SID104196984 | 7.08e5 | 7.10e5 | 8.93e5 | 4.12e5 | inactive |
| unc-13 | SID104196985 | 8.88e5 | 5.60e5 | 1.20e6 | 4.77e5 | inactive |
| unc-13 | SID104197015 | 71846 | 1.18e5 | 4.37e5 | 5.40e5 | inactive |
| Ptp36E (Protein tyrosine phosphatase 36E) | SID104182813 | 2.27e5 | 1.68e5 | 2.27e6 | 1.37e6 | inactive |
| Ptp36E (Protein tyrosine phosphatase 36E) | SID104214420 | – | – | – | – | inactive |
| Ptp36E (Protein tyrosine phosphatase 36E) | SID104214421 | – | – | – | – | inactive |
| eIF4H1 (eukaryotic translation initiation factor 4H1) | SID104200068 | 5.07e5 | 4.02e5 | 3.09e6 | 2.49e6 | inactive |
| LTV1 (LTV1 ribosome biogenesis factor) | SID104185743 | 7.07e5 | 7.44e5 | 1.39e6 | 1.33e6 | inactive |
| botv | SID104185741 | 4.37e5 | 6.17e5 | 1.24e6 | 1.29e6 | inactive |
| botv | SID104206578 | 4.68e5 | 6.29e5 | 9.35e5 | 1.04e6 | inactive |
| CG34324 | SID104202598 | 8.13e5 | 9.94e5 | 1.32e6 | 1.67e6 | inactive |
| CG8206 | SID104199885 | 30960 | 54487 | 5.00e5 | 4.48e5 | inactive |
| CG13869 + CG11099 | SID104186220 | 88008 | 79439 | 1.25e6 | 9.40e5 | inactive |
| CG13869 + CG11099 | SID104203080 | 7.69e5 | 6.26e5 | 9.54e5 | 8.52e5 | inactive |
| Iyd (Iodotyrosine deiodinase) | SID104190406 | 2.31e5 | 2.68e5 | 2.78e6 | 2.21e6 | inactive |
| Iyd (Iodotyrosine deiodinase) | SID104190407 | 1.88e5 | 1.78e5 | 3.02e6 | 1.89e6 | inactive |
| CG8960 | SID104188404 | 9.98e5 | 8.74e5 | 2.64e6 | 2.33e6 | inactive |
| CG8960 | SID104205676 | 3.22e5 | 3.08e5 | 7.86e5 | 7.58e5 | inactive |
| Obp57c (Odorant-binding protein 57c) | SID104186176 | 85459 | 99652 | 7.20e5 | 7.94e5 | inactive |
| enc (encore) | SID104188508 | 96666 | 81519 | 1.45e6 | 1.35e6 | inactive |
| enc (encore) | SID104206089 | 4.24e5 | 3.22e5 | 7.73e5 | 8.53e5 | inactive |
| CG30039 | SID104201453 | 4.32e5 | 5.02e5 | 1.70e6 | 2.66e6 | inactive |
| CG30039 | SID104207935 | 9.32e5 | 1.02e6 | 1.38e6 | 1.38e6 | inactive |
| l(2)k09022 (lethal (2) k09022) | SID104181900 | 9.23e5 | 1.09e6 | 2.42e6 | 2.12e6 | inactive |
| CG15894 | SID104197890 | 1.31e5 | 1.53e5 | 1.61e6 | 1.77e6 | inactive |
| TyrRII (Tyramine receptor II) | SID104194942 | 39935 | 50181 | 1.33e6 | 1.67e6 | active |
| TyrRII (Tyramine receptor II) | SID104203800 | 6.12e5 | 8.11e5 | 1.02e6 | 1.07e6 | inactive |
| SPE (Spatzle-Processing Enzyme) | SID104194927 | 55751 | 78037 | 3.65e5 | 4.45e5 | inactive |
| SPE (Spatzle-Processing Enzyme) | SID104204001 | 7.71e5 | 6.53e5 | 7.70e5 | 6.95e5 | inactive |
| CG4982 | SID104190257 | 4.11e5 | 4.83e5 | 2.02e6 | 3.17e6 | inactive |
| Dhpr (Dihydropteridine reductase) | SID104190927 | 1.63e5 | 1.47e5 | 3.14e6 | 2.31e6 | inactive |
| Gr64d + Gr64e | SID104188238 | 8.71e5 | 1.24e6 | 1.47e6 | 2.48e6 | inactive |
| CG6426 | SID104186777 | 1.07e5 | 96649 | 1.61e6 | 1.61e6 | inactive |
| cbt (cabut) | SID104180447 | 9.89e5 | 1.38e6 | 2.14e6 | 1.43e6 | inactive |
| cbt (cabut) | SID104204661 | 3.22e5 | 2.76e5 | 8.65e5 | 4.92e5 | inactive |
| Lerp (lysosomal enzyme receptor protein) | SID104194542 | 48320 | 50098 | 1.04e6 | 8.61e5 | inactive |
| Lerp (lysosomal enzyme receptor protein) | SID104194543 | 2.24e5 | 2.07e5 | 2.45e6 | 2.58e6 | inactive |
| Lerp (lysosomal enzyme receptor protein) | SID104195822 | 2.28e5 | 2.06e5 | 2.46e6 | 2.68e6 | inactive |
| Lerp (lysosomal enzyme receptor protein) | SID104195823 | 1.64e5 | 1.73e5 | 1.70e6 | 2.45e6 | inactive |
| CG10597 | SID104199149 | 2.23e5 | 2.25e5 | 2.25e6 | 1.90e6 | inactive |
| CG10597 | SID104203647 | 8.79e5 | 1.09e6 | 1.15e6 | 1.19e6 | inactive |
| CG14142 | SID104189937 | 2.05e5 | 1.65e5 | 1.37e6 | 1.23e6 | inactive |
| CG14142 | SID104205202 | 2.29e5 | 2.56e5 | 5.76e5 | 4.75e5 | inactive |
| CG33494 | SID104193507 | 2.21e5 | 2.48e5 | 5.97e5 | 7.56e5 | inactive |
| CG34242 | SID104216302 | 9.17e5 | 9.50e5 | 2.27e6 | 2.10e6 | inactive |
| OtopLc (Otopetrin-like c) | SID104197874 | 1.95e5 | 3.00e5 | 2.02e6 | 1.83e6 | inactive |
| OtopLc (Otopetrin-like c) | SID104197875 | 34110 | 23226 | 5.33e5 | 6.22e5 | inactive |
| OtopLc (Otopetrin-like c) | SID104197924 | 2.13e5 | 2.41e5 | 3.59e6 | 2.95e6 | inactive |
| OtopLc (Otopetrin-like c) | SID104204263 | 7.71e5 | 7.90e5 | 7.71e5 | 7.12e5 | inactive |
| OtopLc (Otopetrin-like c) | SID104204300 | 1.24e6 | 1.03e6 | 9.58e5 | 6.95e5 | inactive |
| OtopLc (Otopetrin-like c) | SID104207021 | 3.15e5 | 7.07e5 | 4.07e5 | 1.02e6 | inactive |
| CG13427 | SID104186181 | 97736 | 1.11e5 | 1.34e6 | 1.31e6 | inactive |
| CG5004 | SID104199721 | 3.93e5 | 4.44e5 | 4.14e6 | 3.18e6 | inactive |
| CG5004 | SID104199722 | 2.27e5 | 1.85e5 | 3.36e6 | 2.70e6 | active |
| CG17239 | SID104180284 | 1.09e5 | 1.67e5 | 7.61e5 | 8.70e5 | inactive |
| CG13566 | SID104183995 | 2.35e5 | 3.06e5 | 1.53e6 | 1.46e6 | inactive |
| CG13566 | SID104203923 | 9.08e5 | 7.90e5 | 1.24e6 | 1.37e6 | inactive |
| mAChR-A (muscarinic Acetylcholine Receptor, A-type) | SID104184494 | 4.96e5 | 3.87e5 | 1.60e6 | 1.24e6 | inactive |
| mAChR-A (muscarinic Acetylcholine Receptor, A-type) | SID104206806 | 4.31e5 | 7.09e5 | 9.63e5 | 1.71e6 | inactive |

Targets above whose gene name begins with L or l (6):
| Gene | PubChem SID | firefly reporter light, replicate 1 | firefly reporter light, replicate 2 | Renilla control light, replicate 1 | Renilla control light, replicate 2 | Outcome |
| --- | --- | --- | --- | --- | --- | --- |
| LTV1 (LTV1 ribosome biogenesis factor) | SID104185743 | 7.07e5 | 7.44e5 | 1.39e6 | 1.33e6 | inactive |
| l(2)k09022 (lethal (2) k09022) | SID104181900 | 9.23e5 | 1.09e6 | 2.42e6 | 2.12e6 | inactive |
| Lerp (lysosomal enzyme receptor protein) | SID104194542 | 48320 | 50098 | 1.04e6 | 8.61e5 | inactive |
| Lerp (lysosomal enzyme receptor protein) | SID104194543 | 2.24e5 | 2.07e5 | 2.45e6 | 2.58e6 | inactive |
| Lerp (lysosomal enzyme receptor protein) | SID104195822 | 2.28e5 | 2.06e5 | 2.46e6 | 2.68e6 | inactive |
| Lerp (lysosomal enzyme receptor protein) | SID104195823 | 1.64e5 | 1.73e5 | 1.70e6 | 2.45e6 | inactive |
